For series [1], the target named is beta-lactoglobulin (UniProt P02754). Kind of series: HPTLC-aptastaining. The note with it: RP-8 and RP-18 plates, little cross-reactivity; White wine mimicking buffer: 1.5 mM KCl, 14.5 mM K acetate, 3.5 mM Mg acetate, 1.5 mM Ca acetate, 1 mM NaH2PO4, 4 mM KH2PO4, 11.5% (v/v) ethanol, pH 3.1; native protein; label: 5' ATTO 550; single-stranded DNA.
Series [2] relates to insulin. The series is described as follows: HPTLC-aptastaining. To be noted: White wine mimicking buffer: 1.5 mM KCl, 14.5 mM K acetate, 3.5 mM Mg acetate, 1.5 mM Ca acetate, 1 mM NaH2PO4, 4 mM KH2PO4, 11.5% (v/v) ethanol, pH 3.1, commercial protein, label: 5' ATTO 550, single-stranded DNA.
Series [3] addresses lysozyme (hen (egg white)) (UniProt P00698). Kind of series: HPTLC-aptastaining. To be noted: RP-8 and RP-18 plates; White wine mimicking buffer: 1.5 mM KCl, 14.5 mM K acetate, 3.5 mM Mg acetate, 1.5 mM Ca acetate, 1 mM NaH2PO4, 4 mM KH2PO4, 11.5% (v/v) ethanol, pH 3.1; native protein; label: 5' ATTO 550; single-stranded DNA.
Series [4] has as its target beta-lactoglobulin (UniProt P02754). The series is described as follows: SPR. To be noted: almost no affinity; White wine mimicking buffer: 1.5 mM KCl, 14.5 mM K acetate, 3.5 mM Mg acetate, 1.5 mM Ca acetate, 1 mM NaH2PO4, 4 mM KH2PO4, 11.5% (v/v) ethanol, pH 3.1; native protein; single-stranded DNA.
In series [5] the test system is insulin. Kind of series: SPR. The note with it: almost no affinity; White wine mimicking buffer: 1.5 mM KCl, 14.5 mM K acetate, 3.5 mM Mg acetate, 1.5 mM Ca acetate, 1 mM NaH2PO4, 4 mM KH2PO4, 11.5% (v/v) ethanol, pH 3.1; commercial protein; single-stranded DNA.
Series [6] concerns the target lysozyme (hen (egg white)) (UniProt P00698). The series is described as follows: SPR. The note with it: white wine mimicking buffer; White wine mimicking buffer: 1.5 mM KCl, 14.5 mM K acetate, 3.5 mM Mg acetate, 1.5 mM Ca acetate, 1 mM NaH2PO4, 4 mM KH2PO4, 11.5% (v/v) ethanol, pH 3.1; native protein; single-stranded DNA.

Chains of the proteins cited; added tags and fusions are not shown. Residues count along the entry.
UniProt P02754, 17-178: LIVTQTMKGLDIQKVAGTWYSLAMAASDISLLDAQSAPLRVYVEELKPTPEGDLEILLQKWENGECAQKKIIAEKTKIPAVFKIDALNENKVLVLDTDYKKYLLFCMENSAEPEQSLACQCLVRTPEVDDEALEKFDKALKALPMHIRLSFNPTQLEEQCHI

For at least one entry, the source does not settle the construct or the ends of the probe. For some assays here: A negative result means that nothing was seen under these conditions. For some assays here: A weaker result is weaker than the reference pair of the same experiment. For some assays here: At least one verdict rests on a figure or table, not on a statement of the authors.

Take “CATCCGTCACACCTGCTCCCTGCTAGAATTTTTCATGATCTTGCTGTATTTCTATTATGGTGTTCGGTCCCGTATC [5'-ATTO 550-LysApt5]”: the binding result is recorded as “binds more weakly” in the series with beta-lactoglobulin [1]; “binds more weakly” with insulin [2] (RP-8 and RP-18 plates, little cross-reactivity); “no binding” in the series on insulin [2] (RP-18W and silica gel plates); “binds” in series [3].

Consider “CATCCGTCACACCTGCTCCCTGCTAGAATTTTTCATGATCTTGCTGTATTTCTATTATGGTGTTCGGTCCCGTATC [LysApt5]”, for which the binding result with beta-lactoglobulin [4] and with insulin [5] was “binds more weakly” each time. This sequence also showed a Kd in series [6] of 17.9 nM.

As to “CATCCGTCACACCTGCTCTTGTTATTTTTTGTTGATGTAGGTTTGATGATGTATTTCCGGTGTTCGGTCCCGTATC [LysApt4]”, the Kd in series [6] came out at 21.7 nM.
